PubChem BioAssay AID1259405 – NCATS | 2018
Test: 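Knock-downs that lift recombinant protein yield in hamster ovary cells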 (primary screen). Cells: Chinese hamster CHO-K1 ovary cells with stable secreted eGFP expression. Reagents: single siRNA against mouse genes, 0.8 pmol siRNA per well (2 µl of 400 nM stock). Duration: 3 days. Detection: 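Percent of the per-plate non-targeting control median for intracellular GFP per well by laser scanning cytometry and for cell viability by ATP luminescence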. Direction: GFP, % of control: higher = more GFP per well, higher productivity; viability (ATP), % of control: higher = more viable cells (more ATP). Call rule: 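a knock-down is called active if GFP reaches 120% or more of non-targeting control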.
Here is an unselected part of about 50,000 deposited reagents. About 4,000 of them (8%) count as active. 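Mouse siRNA library applied to hamster cells; one well for each siRNA.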 Unmarked entries are inactive. Reagents against one gene are numbered here. Reagent sequences are not shown.

With Flywch2 (GeneID 76917) #1, what was measured?
GFP, % of control: 103; viability (ATP), % of control: 65

For Flywch2 (GeneID 76917) #2, how do the results read?
GFP, % of control: 69.9; viability (ATP), % of control: 88.7

What did the screen give for Flywch2 (GeneID 76917) #3?
GFP, % of control: 50.4; viability (ATP), % of control: 61.4

For Timp4 (GeneID 110595) #1, what does the deposit list?
GFP, % of control: 58.4; viability (ATP), % of control: 91.5

Which result is listed for Timp4 (GeneID 110595) #2?
GFP, % of control: 46; viability (ATP), % of control: 72.9

Which result is listed for Timp4 (GeneID 110595) #3?
GFP, % of control: 56.9; viability (ATP), % of control: 74.4

For Mib1 (GeneID 225164) #1, what was measured?
GFP, % of control: 67.8; viability (ATP), % of control: 79.9

With Mib1 (GeneID 225164) #2, what was measured?
GFP, % of control: 101; viability (ATP), % of control: 82.8

How did the screen score Mib1 (GeneID 225164) #3?
GFP, % of control: 84.1; viability (ATP), % of control: 119

An excerpt of the results above, as a working copy:
Mib1 (GeneID 225164) #2 | GFP, % of control: 101; viability (ATP), % of control: 82.8
Mib1 (GeneID 225164) #3 | GFP, % of control: 84.1; viability (ATP), % of control: 119

The list goes on:
For Otop1 (GeneID 21906) #1, how do the results read?
GFP, % of control: 89.5; viability (ATP), % of control: 68.8

For Otop1 (GeneID 21906) #2, how do the results read?
GFP, % of control: 77.5; viability (ATP), % of control: 73.2

Which result is listed for Otop1 (GeneID 21906) #3?
GFP, % of control: 51.4; viability (ATP), % of control: 42.7

What did the screen give for Cndp2 (GeneID 66054) #1?
GFP, % of control: 59.8; viability (ATP), % of control: 86.9

What is on record for Cndp2 (GeneID 66054) #2?
GFP, % of control: 41.8; viability (ATP), % of control: 39.5

What did the screen give for Cndp2 (GeneID 66054) #3?
GFP, % of control: 62.6; viability (ATP), % of control: 69.6

For Mrps33 (GeneID 14548) #1, what was measured?
GFP, % of control: 87.4; viability (ATP), % of control: 68.4

What is on record for Mrps33 (GeneID 14548) #2?
GFP, % of control: 70.1; viability (ATP), % of control: 63.5

What did the screen give for Mrps33 (GeneID 14548) #3?
GFP, % of control: 115; viability (ATP), % of control: 112
